Reference: PubChem BioAssay AID493014 (National Center for Advancing Translational Sciences (NCATS), 2011)
The whole screen tested about 340,000 compounds, of which about 170 (0.05%) were called active. Inconclusive means that the source gave no clear call. Such entries were picked first, then a sample of the others. The call rests on the fitted dose curve; in most records, active means well fitted inhibition curve with a large enough effect in the signal ratio, with a control signal flat (not every such curve was filed as active); inconclusive means small, poorly fitted or top-dose-only effect, or effect the other way, or a change in a side signal; inactive means flat fitted curve, though single readings scatter; the % refers to the signal ratio. Potencies of inconclusive entries are doubtful fits and often do not repeat.

Experiment: qHTS Assay to Find Inhibitors of Chronic Active B-Cell Receptor Signaling;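 on activity change, negative = inhibition: plate controls were basal doxycycline-induced cells for no effect and cells given 10 µM MG132 for full effect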
Conditions: ABC-DLBCL IkBa-CBG/CBR reporter, luminescence ratio (green luciferase fused to IkBa over red control in TMD8 lymphoma cells), 4 h; activity change, negative = inhibition: at 46.1 µM (top of the series)
Outline: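 TMD8 ABC-DLBCL cells carrying doxycycline-inducible green luciferase fused to IkappaBalpha plus unfused red luciferase were exposed to compounds (up to 46 uM) for 4 hrs at 37C. Activity came from the overlap-corrected green/red luminescence ratio.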
Potency means the concentration at half of the fitted maximal effect.

SMILES | Potency | activity change, negative = inhibition
CCOc1c(Cl)cc(CNc2ccc(N3CCCC3)cc2)cc1OC | inconclusive: 11.2 µM [falling, partial curve] | 
O=C(CSc1nc(=O)n(Cc2ccccn2)c2c1CCC2)Nc1ccccc1 | inconclusive: 35.5 µM [falling, single point] | 
CC1=C/C(=N\S(=O)(=O)c2ccccc2)C(C(C)C)=CC1=O |  | inconclusive: -3.57%
Cc1ccc(C(=O)NCCSC2CCCCC2)cc1S(=O)(=O)Nc1ccccc1 |  | inactive
CC(=O)Nc1ccc(S(=O)(=O)NCCc2cn3nc(C)c(C)nc3n2)cc1 |  | inactive
COCCNC(=O)Cn1nc(C)c2ccccc2c1=O |  | inconclusive: -0.135%
COc1ccc(CCC(=O)NC2CC(=O)N(c3ccc(F)cc3)C2)cc1 (stereo unspecified) |  | inconclusive: 6.16%
O=C(NCCc1c[nH]c2ccccc12)c1ccc(F)cc1F |  | inconclusive: -23.8%
COc1ccc(-c2nc3sc(CCNC(=O)c4ccc(Br)o4)c(C)n3n2)cc1 |  | inactive
COc1ccccc1N=C1SC(C)CN1C(=O)C1CCC1 (stereo unspecified) |  | inconclusive: -1.35%
COc1ccc(C(c2sc3ncnn3c2O)N2CCN(c3ccccc3F)CC2)cc1OC (stereo unspecified) | inconclusive: 18.4 µM [falling, single point] | 
CCOC(=O)C1(CC2CCCCO2)CCN(Cc2nc(C(C)C)cs2)CC1 (stereo unspecified) |  | inactive
CCOC(=O)C(=O)c1c(C)cc2ccccn12 |  | inconclusive: -11.6%
N#C/C(=C\c1ccc(-c2nc3ccccc3s2)o1)C(N)=O |  | inactive
CCCCCCCNc1cccc(C)c1 |  | inactive
O=C(c1cccs1)N1CCN(C2CCN(Cc3ccccc3)CC2)CC1 |  | inconclusive: 1.86%
Cc1cc(C)c2cc(C)c3nnc(SCC(=O)NCc4ccc5c(c4)OCO5)n3c2c1 |  | inactive
CCN1CCN(C(=O)CN(c2cccc(Br)c2)S(=O)(=O)c2ccccc2)CC1 |  | inconclusive: -1.22%
O=C(NCCCn1cccn1)C1CCC(=O)N(Cc2ccccc2F)C1 (stereo unspecified) |  | inactive

SMILES | Potency | activity change, negative = inhibition
N#Cc1c(NC(=O)CCN2C(=O)c3ccccc3C2=O)oc(-c2ccccc2)c1-c1ccccc1 |  | inactive
CC1(C)c2ccccc2-n2c1cc1oc(=O)cc(O)c1c2=O |  | inconclusive: 2.35%
COC(=O)C(/C=N/OCc1ccc([N+](=O)[O-])cc1)NC(=O)c1ccccc1 (stereo unspecified) |  | inconclusive: 17.7%
O=C(CSc1cccc[n+]1[O-])NCC1CCCCC1 |  | inactive
COc1ccc(OCC(=O)OC2CCN(C)CC2)cc1 |  | inconclusive: -0.788%
O=C(CCl)Nc1cccc(-c2cnc3ccccc3n2)c1 | inconclusive: 1.3 µM [rising, full curve] | 
Cc1sc2ncnc(SCC(=O)Nc3cccc(S(N)(=O)=O)c3)c2c1C | inconclusive: 23.1 µM [falling, single point] | 
COc1ccc(-n2cnnc2SCC(=O)c2ccc(S(=O)(=O)N3CCOCC3)cc2)cc1 |  | inconclusive: 10%
Cc1cc2cc(CNC(=O)c3cccs3)ccc2n1C |  | inconclusive: -0.326%
NC(=O)CC(NC(=O)c1ccccc1)c1ccc(N2CCC(Cc3ccccc3)CC2)c([N+](=O)[O-])c1 (stereo unspecified) | inconclusive: 2.82 µM [falling, full curve, poor fit] | 
CC(C)c1nnc(NC(=O)C2CCN(C(=O)c3ccco3)CC2)s1 |  | inconclusive: 4.69%
Nc1nnn(CC(=O)N/N=C/c2ccco2)n1 |  | inconclusive: -3.05%
O=C1CC(NCc2cccs2)C(=O)N1c1ccc(Cl)cc1 (stereo unspecified) |  | inconclusive: 10.3%
CSc1ccc(C(=O)/C=C/c2ccc(N)cc2)cc1 | inconclusive: 29.1 µM [falling, single point] | 
COc1ccc2ccccc2c1/C=N/NC(=O)c1nnn(-c2nonc2N)c1C(C)C |  | inactive
Cc1cccc(C2=NN(c3ccccc3)[C@@H](C(=O)N3CCOC3=O)[C@@H]2c2ccc(Cl)cc2)c1 |  | inconclusive: 12.7%
Cc1ccc2oc(=O)c3cnn(CC(=O)N(CCN(C)C)Cc4ccco4)c3c2c1 |  | inconclusive: -2.01%
Cc1cccc(OCc2ccc(C(=O)Nc3cc(C)on3)o2)c1 |  | inconclusive: -56.1%
COc1ccc(OC)c(CN2CCCCCC2)c1 |  | inactive

SMILES | Potency | activity change, negative = inhibition
N=C1c2ccccc2CN1NC(=O)c1cccc(S(=O)(=O)N2CCOCC2)c1 |  | inconclusive: -31.2%
CC(=O)c1c(CSc2ccccc2)oc2ccc(O)c(CN(C)C)c12 |  | inconclusive: 0.0123%
CCc1cccc(CC)c1NC(=O)CN1CCc2cc(OC)c(OC)cc2C1 |  | inactive
CCCOc1ccc(CCC(=O)N/N=C/c2ccc([N+](=O)[O-])o2)cc1 |  | inactive
CCCNC(=O)c1cccc(Cn2nc(C)c(Br)c2C)c1 |  | inactive
C=CCNCc1ccc(C(=O)NCCCCCCC)cc1[N+](=O)[O-] |  | inactive
Cc1ccc(Cn2c([N+](=O)[O-])cnc2C)cc1 |  | inconclusive: 13.1%
CCOc1cccc2sc(N(CCN(C)C)C(=O)/C=C/c3cccs3)nc12 |  | inconclusive: -13.1%
COc1cccc(C(CC(=O)Nc2cccc3ccccc23)NC(=O)c2ccccc2)c1 (stereo unspecified) |  | inconclusive: 12.2%
CC(C)CC(NC(=O)C(NC(=O)C1OC2OC(C)(C)OC2C2OC(C)(C)OC12)C(C)C)C(=O)O (stereo unspecified) |  | inconclusive: 0.0354%
COC(=O)c1c(C)oc2ccc(N(C(=O)c3ccncc3)S(=O)(=O)c3ccccc3)cc12 |  | inconclusive: 0.469%
Cc1c(C)c2cc3c(C)coc3cc2oc1=O |  | inactive
O=C(NCCc1nc2ccccc2[nH]1)/C(=C/c1ccc(F)cc1)NC(=O)c1ccco1 | inconclusive: 11.2 µM [falling, partial curve] | 
COc1ccc(CCNC(=O)C(=O)c2cn(CC(=O)N3CCOCC3)c3ccccc23)cc1OC | inconclusive: 7.94 µM [falling, partial curve] | 
CCOC(=O)Cn1cc(C#N)c2cccc(CC)c21 |  | inconclusive: -11.4%
COc1ccccc1C(=O)NNC(=O)c1sccc1-n1cccc1 |  | inactive
COc1cc(C2C(C#N)=C(N)N(c3cccnc3)C3=C2C(=O)CCC3)ccc1O (stereo unspecified) |  | inactive
CCN1CCN(c2cc(N3CCc4ccccc4C3)c(F)cc2[N+](=O)[O-])CC1 | inconclusive: 29.1 µM [falling, single point] | 

Entries of single compounds, looked up by structure.
CC(C)CC(NC(=O)C(NC(=O)C1OC2OC(C)(C)OC2C2OC(C)(C)OC12)C(C)C)C(=O)O (stereo unspecified) reads activity change, negative = inhibition: inconclusive: 0.0354%
C=CCNCc1ccc(C(=O)NCCCCCCC)cc1[N+](=O)[O-] reads activity change, negative = inhibition: inactive
CCOc1cccc2sc(N(CCN(C)C)C(=O)/C=C/c3cccs3)nc12 reads activity change, negative = inhibition: inconclusive: -13.1%
Cc1c(C)c2cc3c(C)coc3cc2oc1=O reads activity change, negative = inhibition: inactive
